We go through three molecules from PMC10411580.

No constants are given. Whether binding was seen depends on the method and setting. Binding seen in cells or lysates may run through a third protein. Some binding calls cover weakened binding; strength is not graded here. Tags and fused reporters may be left off the sequences shown.

Sequences and labels used below:
B1: Rrp4-2xMyc (wild-type S. cerevisiae RNA exosome cap subunit Rrp4, Myc-tagged) (protein, UniProt P38792 1-359)
chain: MSEVITITKRNGAFQNSSNLSYNNTGISDDENDEEDIYMHDVNSASKSESDSQIVTPGELVTDDPIWMRGHGTYFLDNMTYSSVAGTVSRVNRLLSVIPLKGRYAPETGDHVVGRIAEVGNKRWKVDIGGKQHAVLMLGSVNLPGGILRRKSESDELQMRSFLKEGDLLNAEVQSLFQDGSASLHTRSLKYGKLRNGMFCQVPSSLIVRAKNHTHNLPGNITVVLGVNGYIWLRKTSQMDLARDTPSANNSSSIKSTGPTGAVSLNPSITRLEEESSWQIYSDENDPSISNNIRQAICRYANVIKALAFCEIGITQQRIVSAYEASMVYSNVGELIEKNVMESIGSDILTAEKMRGNGN
B2: Rrp4 G226D-2xMyc (S. cerevisiae Rrp4 variant that models the SHRF-linked human EXOSC2 p.Gly198Asp, Myc-tagged) (protein, UniProt P38792 1-359)
chain: MSEVITITKRNGAFQNSSNLSYNNTGISDDENDEEDIYMHDVNSASKSESDSQIVTPGELVTDDPIWMRGHGTYFLDNMTYSSVAGTVSRVNRLLSVIPLKGRYAPETGDHVVGRIAEVGNKRWKVDIGGKQHAVLMLGSVNLPGGILRRKSESDELQMRSFLKEGDLLNAEVQSLFQDGSASLHTRSLKYGKLRNGMFCQVPSSLIVRAKNHTHNLPGNITVVLDVNGYIWLRKTSQMDLARDTPSANNSSSIKSTGPTGAVSLNPSITRLEEESSWQIYSDENDPSISNNIRQAICRYANVIKALAFCEIGITQQRIVSAYEASMVYSNVGELIEKNVMESIGSDILTAEKMRGNGN
B3: Rrp4 M68T-2xMyc (S. cerevisiae Rrp4 variant that models human EXOSC2 p.Met40Thr, Myc-tagged) (protein, UniProt P38792 1-359)
chain: MSEVITITKRNGAFQNSSNLSYNNTGISDDENDEEDIYMHDVNSASKSESDSQIVTPGELVTDDPIWTRGHGTYFLDNMTYSSVAGTVSRVNRLLSVIPLKGRYAPETGDHVVGRIAEVGNKRWKVDIGGKQHAVLMLGSVNLPGGILRRKSESDELQMRSFLKEGDLLNAEVQSLFQDGSASLHTRSLKYGKLRNGMFCQVPSSLIVRAKNHTHNLPGNITVVLGVNGYIWLRKTSQMDLARDTPSANNSSSIKSTGPTGAVSLNPSITRLEEESSWQIYSDENDPSISNNIRQAICRYANVIKALAFCEIGITQQRIVSAYEASMVYSNVGELIEKNVMESIGSDILTAEKMRGNGN

In this test the target is T1, Rrp45-TAP (S. cerevisiae RNA exosome core subunit Rrp45, C-terminally tandem affinity purification tagged) (S. cerevisiae) (UniProt Q05636).
T1 sequence: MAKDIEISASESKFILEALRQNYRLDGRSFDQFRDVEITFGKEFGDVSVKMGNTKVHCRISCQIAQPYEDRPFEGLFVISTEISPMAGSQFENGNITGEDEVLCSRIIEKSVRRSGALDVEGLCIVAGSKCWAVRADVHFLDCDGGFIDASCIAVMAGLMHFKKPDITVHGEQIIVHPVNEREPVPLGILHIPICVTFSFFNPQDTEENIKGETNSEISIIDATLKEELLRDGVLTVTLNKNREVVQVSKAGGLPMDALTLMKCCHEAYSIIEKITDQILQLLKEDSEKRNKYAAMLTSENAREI
Briefly: co-IP; Rrp45-TAP precipitated on IgG Sepharose beads from 1 mg cleared lysate of RRP45-TAP cells grown at 30°C that hold endogenous wild-type Rrp4 and express Myc-tagged Rrp4 variants from plasmids; IPP150 buffer (10 mM Tris-HCl pH 8, 150 mM NaCl, 0.1% NP40), 4°C overnight; anti-Myc immunoblot. In general terms: Immunoblotting shows a protein as a band on a membrane.
Turning to B1, the binding result is listed as “binds”.
On to B2, for which the binding entry is “no binding”.
For B3, the binding entry is given as “binds”.
